These are yes or no findings as the source states them, for the method shown. Binding seen in cells or lysates may run through a third protein. Some entries that bind do so weakly or less than the wild type. Where a sequence is shown, tags or fusion partners need not be part of it.
Molecular target: HA-tagged CFTR R domain (UniProt P13569)
Assay: co-IP; COS7 cells co-transfected with HA-RD and Myc-STAS or Myc-STAS-p.Asp688His; lysates precipitated with anti-HA antibody (3-5 ug/mL) or normal rabbit IgG (control) and protein G-agarose; blot with anti-Myc antibody

By UniProt entry, the sequences of proteins in these tests, tags left out. Residues count along the entry.
UniProt P13569, residues 590-858: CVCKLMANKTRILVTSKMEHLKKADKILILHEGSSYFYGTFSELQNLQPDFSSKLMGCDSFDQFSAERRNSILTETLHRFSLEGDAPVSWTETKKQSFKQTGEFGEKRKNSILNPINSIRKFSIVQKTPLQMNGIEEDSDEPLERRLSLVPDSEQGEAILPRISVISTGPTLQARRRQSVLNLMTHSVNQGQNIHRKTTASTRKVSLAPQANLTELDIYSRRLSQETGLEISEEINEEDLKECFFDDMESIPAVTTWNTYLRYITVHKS

Binder	binding
Myc-tagged wild-type SLC26A3 STAS domain (domain or fragment, UniProt P40879 518-713) NIYKNKKDYYDMYEPEGVKIFRCPSPIYFANIGFFRRKLIDAVGFSPLRILRKRNKALRKIRKLQKQGLLQVTPKGFICTVDTIKDSDEELDNNQIEVLDQPINTTDLPFHIDWNDDLPLNIEVPKISLHSLILDFSAVSFLDVSSVRGLKSILQEFIRIKVDVYIVGTDDDFIEKLNRYEFFDGEVKSSIFFLTI	binds
Myc-tagged SLC26A3 STAS domain with the c.2062 G > C (p.Asp688His) mutation (domain or fragment, UniProt P40879 518-713) NIYKNKKDYYDMYEPEGVKIFRCPSPIYFANIGFFRRKLIDAVGFSPLRILRKRNKALRKIRKLQKQGLLQVTPKGFICTVDTIKDSDEELDNNQIEVLDQPINTTDLPFHIDWNDDLPLNIEVPKISLHSLILDFSAVSFLDVSSVRGLKSILQEFIRIKVDVYIVGTDHDFIEKLNRYEFFDGEVKSSIFFLTI	binds

Source: PMC5660164
